For experiment [1], the target named is T1, Bdp1-Myc (Myc-tagged Bdp1, subunit of TFIIIB) (S. cerevisiae) (UniProt P46678).
T1 sequence: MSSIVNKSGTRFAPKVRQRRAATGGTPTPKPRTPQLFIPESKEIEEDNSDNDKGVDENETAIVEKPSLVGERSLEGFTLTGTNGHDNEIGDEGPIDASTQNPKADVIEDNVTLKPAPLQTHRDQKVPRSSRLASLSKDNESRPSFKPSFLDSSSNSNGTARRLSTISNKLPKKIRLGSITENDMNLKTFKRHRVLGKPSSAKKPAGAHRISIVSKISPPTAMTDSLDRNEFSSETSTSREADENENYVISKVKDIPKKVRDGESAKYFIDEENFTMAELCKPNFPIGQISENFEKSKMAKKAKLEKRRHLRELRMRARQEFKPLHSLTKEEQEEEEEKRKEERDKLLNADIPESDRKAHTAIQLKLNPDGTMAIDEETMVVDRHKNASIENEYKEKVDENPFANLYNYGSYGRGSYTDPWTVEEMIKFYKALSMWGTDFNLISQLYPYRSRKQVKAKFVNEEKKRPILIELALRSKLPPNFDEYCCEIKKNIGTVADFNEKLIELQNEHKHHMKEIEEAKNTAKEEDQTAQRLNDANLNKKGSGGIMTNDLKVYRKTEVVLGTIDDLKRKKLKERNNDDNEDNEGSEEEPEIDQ
The experiment in a line: co-IP; S phase-synchronized cells (CDK1 or cdk1-as1 background); lysis buffer 50 mM HEPES-KOH pH 7.5, 100 mM KCl, 5 mM MgCl2, 1 mM EDTA, 1% Triton, 3 mM DTT, 5% glycerol; Bdp1 immunoprecipitated with Myc antibodies on magnetic beads; western blot with anti-Myc and anti-HA.

The target in experiment [2] is T2, Bdp1-3TA-Myc (non-phosphorylatable Bdp1, T26, T28 and T33 substituted by alanine) (S. cerevisiae) (UniProt P46678).
T2 sequence: T1 sequence with T26A, T28A, T33A
Described as above.

Where a chain is given by its changes, count along the chain named. No constants are given. Whether binding was seen depends on the method and setting. Binding seen in cells or lysates may run through a third protein. Some entries that bind do so weakly or less than the wild type. Tags and fused reporters may be left off the sequences shown.

B1: Tfc4-HA (HA-tagged Tfc4, subunit of TFIIIC) (protein, UniProt P33339 1-1025)
chain: MAAGKLKKEQQNQSAERESADTGKVNDEDEEHLYGNIDDYKHLIQDEEYDDEDVPHDLQLSEDEYNSERDSSLLAEFSDYGEISEDDEEDFMNAIREASNFKVKKKKKNDKGKSYGRQRKERVLDPEVAQLLSQANEAFVRNDLQVAERLFNEVIKKDARNFAAYETLGDIYQLQGRLNDCCNSWFLAAHLNASDWEFWKIVAILSADLDHVRQAIYCFSRVISLNPMEWESIYRRSMLYKKTGQLARALDGFQRLYMYNPYDANILRELAILYVDYDRIEDSIELYMKVFNANVERREAILAALENALDSSDEESAAEGEDADEKEPLEQDEDRQMFPDINWKKIDAKYKCIPFDWSSLNILAELFLKLAVSEVDGIKTIKKCARWIQRRESQTFWDHVPDDSEFDNRRFKNSTFDSLLAAEKEKSYNIPIDIRVRLGLLRLNTDNLVEALNHFQCLYDETFSDVADLYFEAATALTRAEKYKEAIDFFTPLLSLEEWRTTDVFKPLARCYKEIESYETAKEFYELAIKSEPDDLDIRVSLAEVYYRLNDPETFKHMLVDVVEMRKHQVDETLHRISNEKSSNDTSDISSKPLLEDSKFRTFRKKKRTPYDAERERIERERRITAKVVDKYEKMKKFELNSGLNEAKQASIWINTVSELVDIFSSVKNFFMKSRSRKFVGILRRTKKFNTELDFQIERLSKLAEGDSVFEGPLMEERVTLTSATELRGLSYEQWFELFMELSLVIAKYQSVEDGLSVVETAQEVNVFFQDPERVKMMKFVKLAIVLQMDDEEELAENLRGLLNQFQFNRKVLQVFMYSLCRGPSSLNILSSTIQQKFFLRQLKAFDSCRYNTEVNGQASITNKEVYNPNKKSSPYLYYIYAVLLYSSRGFLSALQYLTRLEEDIPDDPMVNLLMGLSHIHRAMQRLTAQRHFQIFHGLRYLYRYHKIRKSLYTDLEKQEADYNLGRAFHLIGLVSIAIEYYNRVLENYDDGKLKKHAAYNSIIIYQQSGNVELADHLMEKYLSI
In the case of B1, the binding result in experiment [1] and in experiment [2] was “binds” in each case.

(Values after paper PMC6294503.)
